Results deposited as PubChem BioAssay AID1259254 (NCATS, 2017)
Assay: 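Genome-wide screen for genes that prevent DNA re-replication in cancer cells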 (primary screen). Cell system: human HCT116 colorectal cancer cells. Knock-down reagent: single siRNA against human genes. Timing: 3 days. Measured: 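Imaged Hoechst DNA stain sorts each cell into a cycle phase by DNA amount; per plate, G2 fraction set to 0% for non-targeting and 100% for GMNN siRNA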. Direction: G2 robust z-score and G2 cells, % of GMNN control: higher = more G2 cells, more excess DNA replication. Call rule: 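An siRNA counts as active if its G2 robust z-score lies at least 5 MADs above the screen median; here such calls match roughly 38% of GMNN control or more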.
Here is an unselected part of about 59,000 reagents tested. About 1,550 of them (2.6%) were called active. 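G2 share is only a proxy for re-replication; each gene was hit by three separate siRNAs, and active genes were retested.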 Reagents against one gene are numbered here. Not all columns of the deposit are shown. Reagent sequences are not shown. Not stated in the record: the amount of reagent.

target gene | reagent no. | G2 robust z-score | G2 cells, % of GMNN control | call
TMC2 (GeneID 117532) | 1 | -0.385 | 0.255 | inactive
TMC2 (GeneID 117532) | 2 | -0.387 | 0.243 | inactive
TMC2 (GeneID 117532) | 3 | 0.48 | 6.35 | inactive
CENPB (GeneID 1059) | 1 | 1.12 | 10.8 | inactive
CENPB (GeneID 1059) | 2 | 4.81 | 36.8 | inactive
CENPB (GeneID 1059) | 3 | 0.566 | 6.95 | inactive
ZC3H12B (GeneID 340554) | 1 | -0.486 | -0.449 | inactive
ZC3H12B (GeneID 340554) | 2 | -0.705 | -1.99 | inactive
ZC3H12B (GeneID 340554) | 3 | 0.103 | 3.69 | inactive
TMEM138 (GeneID 51524) | 1 | -0.214 | 1.46 | inactive
TMEM138 (GeneID 51524) | 2 | 1.31 | 12.2 | inactive
TMEM138 (GeneID 51524) | 3 | 0.812 | 8.68 | inactive
DES (GeneID 1674) | 1 | -0.0731 | 2.45 | inactive
DES (GeneID 1674) | 2 | -1.32 | -6.3 | inactive
DES (GeneID 1674) | 3 | 0.439 | 6.05 | inactive
LOC729088 (retired record) (GeneID 729088) | 1 | 1.45 | 13.1 | inactive
LOC729088 (retired record) (GeneID 729088) | 2 | 0.00908 | 3.03 | inactive
LOC729088 (retired record) (GeneID 729088) | 3 | -0.642 | -1.55 | inactive
GDF15 (GeneID 9518) | 1 | -0.769 | -2.45 | inactive
GDF15 (GeneID 9518) | 2 | 2.12 | 17.9 | inactive
GDF15 (GeneID 9518) | 3 | -0.291 | 0.922 | inactive
KRT79 (GeneID 338785) | 1 | -0.649 | -1.6 | inactive
KRT79 (GeneID 338785) | 2 | -0.634 | -1.49 | inactive
KRT79 (GeneID 338785) | 3 | -0.792 | -2.6 | inactive
MSTO1 (GeneID 55154) | 1 | -0.513 | -0.639 | inactive
MSTO1 (GeneID 55154) | 2 | 3.66 | 28.7 | inactive
MSTO1 (GeneID 55154) | 3 | 0.153 | 4.04 | inactive
ALKBH5 (GeneID 54890) | 1 | 1.42 | 12.9 | inactive
ALKBH5 (GeneID 54890) | 2 | -0.596 | -1.22 | inactive
ALKBH5 (GeneID 54890) | 3 | -0.984 | -3.96 | inactive
DCDC2 (GeneID 51473) | 1 | 1.01 | 10.1 | inactive
DCDC2 (GeneID 51473) | 2 | -0.0409 | 2.68 | inactive
DCDC2 (GeneID 51473) | 3 | -0.0244 | 2.8 | inactive

4 entries from above, sorted by “G2 robust z-score”, highest first:
target gene | reagent no. | G2 robust z-score | G2 cells, % of GMNN control | call
MSTO1 (GeneID 55154) | 2 | 3.66 | 28.7 | inactive
ALKBH5 (GeneID 54890) | 1 | 1.42 | 12.9 | inactive
MSTO1 (GeneID 55154) | 3 | 0.153 | 4.04 | inactive
MSTO1 (GeneID 55154) | 1 | -0.513 | -0.639 | inactive

Further results:
target gene | reagent no. | G2 robust z-score | G2 cells, % of GMNN control | call
TRIM65 (GeneID 201292) | 1 | 0.184 | 4.26 | inactive
TRIM65 (GeneID 201292) | 2 | 2.24 | 18.7 | inactive
TRIM65 (GeneID 201292) | 3 | -0.968 | -3.84 | inactive
OR9Q1 (GeneID 219956) | 1 | 0.608 | 7.25 | inactive
OR9Q1 (GeneID 219956) | 2 | -0.449 | -0.191 | inactive
OR9Q1 (GeneID 219956) | 3 | 2.22 | 18.6 | inactive
BCL2L11 (GeneID 10018) | 1 | -0.162 | 1.83 | inactive
BCL2L11 (GeneID 10018) | 2 | -0.7 | -1.96 | inactive
BCL2L11 (GeneID 10018) | 3 | 1.51 | 13.6 | inactive
ADH6 (GeneID 130) | 1 | -0.656 | -1.65 | inactive
ADH6 (GeneID 130) | 2 | 2.48 | 20.4 | inactive
ADH6 (GeneID 130) | 3 | 5.55 | 42 | active
TSTD2 (GeneID 158427) | 1 | -0.44 | -0.132 | inactive
TSTD2 (GeneID 158427) | 2 | 1.17 | 11.2 | inactive
TSTD2 (GeneID 158427) | 3 | -0.64 | -1.54 | inactive
RBP4 (GeneID 5950) | 1 | -0.564 | -1 | inactive
RBP4 (GeneID 5950) | 2 | 1.91 | 16.4 | inactive
RBP4 (GeneID 5950) | 3 | 1.07 | 10.5 | inactive
SPOPLP2 (GeneID 642381) | 1 | -0.343 | 0.554 | inactive
SPOPLP2 (GeneID 642381) | 2 | 0.821 | 8.74 | inactive
SPOPLP2 (GeneID 642381) | 3 | -0.757 | -2.36 | inactive
HCP5 (GeneID 10866) | 1 | -0.891 | -3.3 | inactive
HCP5 (GeneID 10866) | 2 | -0.69 | -1.89 | inactive
HCP5 (GeneID 10866) | 3 | -0.748 | -2.29 | inactive
CHM (GeneID 1121) | 1 | -0.186 | 1.66 | inactive
CHM (GeneID 1121) | 2 | 2.48 | 20.4 | inactive
CHM (GeneID 1121) | 3 | -1.25 | -5.8 | inactive
SEMA4B (GeneID 10509) | 1 | -1.65 | -8.63 | inactive
SEMA4B (GeneID 10509) | 2 | -1.08 | -4.6 | inactive
SEMA4B (GeneID 10509) | 3 | 1.72 | 15.1 | inactive
APH1B (GeneID 83464) | 1 | 0.0797 | 3.53 | inactive
APH1B (GeneID 83464) | 2 | 4.77 | 36.5 | inactive
APH1B (GeneID 83464) | 3 | 2.2 | 18.4 | inactive
CARD14 (GeneID 79092) | 1 | 0.278 | 4.92 | inactive
CARD14 (GeneID 79092) | 2 | -0.328 | 0.657 | inactive
CARD14 (GeneID 79092) | 3 | 5.76 | 43.5 | active
